Results deposited as PubChem BioAssay AID504808 (Drosophila RNAi Screening Center, 2011)

Assay: 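Genes whose loss lifts activity of an E2F-responsive reporter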 (primary screen)
Cell system: Drosophila S2 cells
Knock-down reagent: long dsRNA against Drosophila genes
Measured: 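Dual luciferase plate measurements; E2F-specific signal taken as firefly over Renilla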
Scale: E2F firefly: higher = more E2F reporter activity; Renilla normaliser: higher = more normaliser reporter signal
Rule for the call: 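a knock-down counted as active when the firefly/Renilla E2F signal rose above 50%, a threshold chosen arbitrarily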
The screen tested about 21,000 reagents; this is an unselected part of those that have a named target and a result. In the full data, 18 (0.084%) got an active call. 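Raw counts without plate normalisation, one of two replicates; the ratio scores behind the calls were not deposited.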 A number with no mark means an inactive call. Not stated in the record: the amount of reagent, the time to read-out.

gene	amplicon	E2F firefly, rep 1	Renilla normaliser, rep 1
CG6073	DRSC15962	89937	932
CG33140	DRSC06030	90907	3463
Ppat-Dpck	DRSC09744	74332	3460
CG9164	DRSC19087	92710	2876
CG9164	DRSC20162	7983	712
CG12682	DRSC17873	1.04e5	5300
CG10011	DRSC14174	1735	880
CG7744	DRSC07036	73221	3291
CG5721	DRSC06945	72902	3777
Prx6a (Peroxiredoxin 6a)	DRSC00565	87331	3308
Ccm3 (Cerebral cavernous malformation 3)	DRSC15711	1.13e5	5234
Rga (Regena)	DRSC12364	1.79e5	6890
Pyroxd1 (Pyridine nucleotide-disulfide oxidoreductase domain 1)	DRSC02098	95761	3775
Send1 (Spermathecal endopeptidase 1)	DRSC00482	1.38e5	5242
TfIIA-S-2	DRSC17791	44155	4130
CG3906	DRSC04431	72335	3312
LManV (Lysosomal alpha-mannosidase V)	DRSC03223	82879	3406
Rpn12R (Regulatory particle non-ATPase 12-related)	DRSC09842	1.57e5	7968
gprs	DRSC06761	1.38e5	4713
mthl15 (methuselah-like 15)	DRSC01120	1.43e5	7445
CG6893	DRSC10742	1.58e5	6561
Ac3 (Adenylate cyclase 3)	DRSC03692	78961	4023
CG14982	DRSC08440	71043	3728
Npc2f (Niemann-Pick type C-2f)	DRSC15980	77646	3773
wwk (white walker)	DRSC01941	1.03e5	3533
prtp (pretaporter)	DRSC19804	72189	688
CG14564	DRSC11725	1.48e5	6882
sand (sandman)	DRSC07245	1.42e5	4616
CG13616	DRSC14619	95405	6502
CtsL2 (Cathepsin L2)	DRSC06978	218	39
BORCS5 (BLOC-1 related complex subunit 5)	DRSC19427	8434	772
CG2772	DRSC00530	1.49e5	5439
Prtl99C (Protamine-like 99C)	DRSC15049	1.24e5	6841
Mpv17 (Mitochondrial inner membrane protein MPV17)	DRSC17198	1.22e5	6130
